Taken from: PubChem BioAssay AID1259254 (NCATS, 2017)

Test: 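Finding genes that stop cells copying their DNA twice in one cycle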 (primary screen)
Cell system: human HCT116 colorectal cancer cells
Knock-down reagent: single siRNA against human genes
Timing: 3 days
Measured: 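Nuclei stained with Hoechst and imaged; cell-cycle phase assigned by DNA content; G2 share scaled per plate, non-targeting siRNA 0%, GMNN siRNA 100%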
Reading the numbers: G2 robust z-score and G2 cells, % of GMNN control: higher = more G2 cells, more excess DNA replication
Call rule: 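Active siRNAs have a G2 robust z of 5 or more median absolute deviations over the median, which in these data means about 38% or higher of GMNN control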
The deposit covers about 59,000 reagents; shown is a part drawn at random. About 1,550 of all reagents (2.6%) count as active. 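G2 share is only a proxy for re-replication; each gene was hit by three separate siRNAs, and active genes were retested.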 Reagents against one gene are numbered here. Not all columns of the deposit are shown. No sequences are given here. Not given: the amount of reagent.

The opening 3 records as a preview:
| gene knocked down | reagent | G2 robust z-score | G2 cells, % of GMNN control | Outcome |
| --- | --- | --- | --- | --- |
| PRPSAP2 | 1 | 0.664 | 7.64 | inactive |
| PRPSAP2 | 2 | -1.52 | -7.73 | inactive |
| PRPSAP2 | 3 | 0.886 | 9.2 | inactive |

Main list, from the start:
| gene knocked down | reagent | G2 robust z-score | G2 cells, % of GMNN control | Outcome |
| --- | --- | --- | --- | --- |
| PRPSAP2 | 1 | 0.664 | 7.64 | inactive |
| PRPSAP2 | 2 | -1.52 | -7.73 | inactive |
| PRPSAP2 | 3 | 0.886 | 9.2 | inactive |
| NANP | 1 | -0.105 | 2.23 | inactive |
| NANP | 2 | -0.46 | -0.27 | inactive |
| NANP | 3 | -0.0467 | 2.64 | inactive |
| GTF3C1 | 1 | -1.18 | -5.35 | inactive |
| GTF3C1 | 2 | -0.236 | 1.31 | inactive |
| GTF3C1 | 3 | 0.299 | 5.07 | inactive |
| RPS26P40 | 1 | 1.33 | 12.3 | inactive |
| RPS26P40 | 2 | 7.45 | 55.4 | active |
| RPS26P40 | 3 | 0.253 | 4.75 | inactive |
| NYAP2 | 1 | -0.698 | -1.94 | inactive |
| NYAP2 | 2 | 1.08 | 10.6 | inactive |
| NYAP2 | 3 | -0.681 | -1.83 | inactive |
| ADGRV1 | 1 | 0.334 | 5.31 | inactive |
| ADGRV1 | 2 | -0.15 | 1.91 | inactive |
| ADGRV1 | 3 | 2.43 | 20.1 | inactive |
| GOLGA8EP | 1 | -0.153 | 1.89 | inactive |
| GOLGA8EP | 2 | -0.744 | -2.27 | inactive |
| GOLGA8EP | 3 | 0.552 | 6.85 | inactive |
| TCEAL9 | 1 | -0.617 | -1.37 | inactive |
| TCEAL9 | 2 | -1.26 | -5.91 | inactive |
| TCEAL9 | 3 | 0.0462 | 3.29 | inactive |
| STXBP5L | 1 | 1.71 | 15 | inactive |
| STXBP5L | 2 | 1.01 | 10.1 | inactive |
| STXBP5L | 3 | 1.28 | 12 | inactive |
| PCDHGC4 | 1 | -0.756 | -2.35 | inactive |
| PCDHGC4 | 2 | -0.19 | 1.63 | inactive |
| PCDHGC4 | 3 | -0.343 | 0.551 | inactive |
| NSUN7 | 1 | -1.35 | -6.57 | inactive |
| NSUN7 | 2 | 8.22 | 60.8 | active |
| NSUN7 | 3 | 0.252 | 4.74 | inactive |
| DENND11 | 1 | 0.592 | 7.13 | inactive |
| DENND11 | 2 | 0.00146 | 2.98 | inactive |
| DENND11 | 3 | -0.147 | 1.93 | inactive |
| PIK3R4 | 1 | -0.741 | -2.25 | inactive |
| PIK3R4 | 2 | -0.917 | -3.49 | inactive |
| PIK3R4 | 3 | -0.301 | 0.849 | inactive |
| HEATR5B | 1 | -0.978 | -3.91 | inactive |
| HEATR5B | 2 | -0.15 | 1.91 | inactive |
| HEATR5B | 3 | 2.16 | 18.2 | inactive |
| SLC9B2 | 1 | 0.129 | 3.87 | inactive |
| SLC9B2 | 2 | -0.876 | -3.19 | inactive |
| SLC9B2 | 3 | 1.78 | 15.5 | inactive |
| SNIP1 | 1 | -0.839 | -2.93 | inactive |
| SNIP1 | 2 | -0.704 | -1.98 | inactive |
| SNIP1 | 3 | -0.317 | 0.735 | inactive |
| ENC1 | 1 | 0.947 | 9.63 | inactive |
| ENC1 | 2 | -0.358 | 0.451 | inactive |
| ENC1 | 3 | -0.15 | 1.91 | inactive |
| MAP3K5 | 1 | -0.962 | -3.8 | inactive |
| MAP3K5 | 2 | -1.35 | -6.56 | inactive |
| MAP3K5 | 3 | -0.966 | -3.83 | inactive |
| LRRC73 | 1 | 0.0791 | 3.52 | inactive |
| LRRC73 | 2 | 1.92 | 16.5 | inactive |
| LRRC73 | 3 | 9.06 | 66.7 | active |
| TEK | 1 | 1.05 | 10.3 | inactive |
| TEK | 2 | -0.189 | 1.64 | inactive |
| TEK | 3 | 0.118 | 3.8 | inactive |
| RAB5IF | 1 | -0.816 | -2.77 | inactive |
| RAB5IF | 2 | 0.188 | 4.29 | inactive |
| RAB5IF | 3 | -0.655 | -1.64 | inactive |
| CDKN2C | 1 | 1.56 | 14 | inactive |
| CDKN2C | 2 | -0.455 | -0.237 | inactive |
| CDKN2C | 3 | -1.16 | -5.18 | inactive |
| DLX6-AS1 | 1 | -0.344 | 0.545 | inactive |
| DLX6-AS1 | 2 | 0.605 | 7.22 | inactive |
| DLX6-AS1 | 3 | 0.0324 | 3.2 | inactive |
